For this assay, the target named is Flag-tagged ACOX1 protein (acyl-CoA oxidase 1) (human) (UniProt Q15067). Briefly: co-IP; HEK293T cells co-transfected; IP lysis buffer (0.025 M Tris-HCl, 0.15 M NaCl, 1 mM EDTA, 1% NP-40, 5% glycerol, pH 7.4); IP with anti-Flag or anti-HA or control IgG overnight at 4°C, protein G agarose; Western blot.

No constants are given. Whether binding was seen depends on the method and setting. In cells and extracts the contact can be indirect. Some entries that bind do so weakly or less than the wild type. Sequences can lack the tags named with a protein.

B1: Flag-tagged ACOX1 protein (acyl-CoA oxidase 1) (enzyme, UniProt Q15067 1-660)
chain: MNPDLRRERDSASFNPELLTHILDGSPEKTRRRREIENMILNDPDFQHEDLNFLTRSQRYEVAVRKSAIMVKKMREFGIADPDEIMWFKKLHLVNFVEPVGLNYSMFIPTLLNQGTTAQKEKWLLSSKGLQIIGTYAQTEMGHGTHLRGLETTATYDPETQEFILNSPTVTSIKWWPGGLGKTSNHAIVLAQLITKGKCYGLHAFIVPIREIGTHKPLPGITVGDIGPKFGYDEIDNGYLKMDNHRIPRENMLMKYAQVKPDGTYVKPLSNKLTYGTMVFVRSFLVGEAARALSKACTIAIRYSAVRHQSEIKPGEPEPQILDFQTQQYKLFPLLATAYAFQFVGAYMKETYHRINEGIGQGDLSELPELHALTAGLKAFTSWTANTGIEACRMACGGHGYSHCSGLPNIYVNFTPSCTFEGENTVMMLQTARFLMKSYDQVHSGKLVCGMVSYLNDLPSQRIQPQQVAVWPTMVDINSPESLTEAYKLRAARLVEIAAKNLQKEVIHRKSKEVAWNLTSVDLVRASEAHCHYVVVKLFSEKLLKIQDKAIQAVLRSLCLLYSLYGISQNAGDFLQGSIMTEPQITQVNQRVKELLTLIRSDAVALVDAFDFQDVTLGSVLGRYDGNVYENLFEWAKNSPLNKAEVHESYKHLKSLQSKL
With B1, the binding entry is reported as “binds”.

Values taken from PMC7250321.
